# Results are given in words; binding and its absence hold for the method and conditions named. In cells and extracts the contact can be indirect. A yes stands for co-enrichment or nearness to the bait. Other partners may have been found. Tags and fused reporters may be left off the sequences shown.
# T1: Retention in endoplasmic reticulum 1 (Rer1), mouse (mouse (endogenous in brain)) (UniProt Q9CQU3)
# T1 sequence: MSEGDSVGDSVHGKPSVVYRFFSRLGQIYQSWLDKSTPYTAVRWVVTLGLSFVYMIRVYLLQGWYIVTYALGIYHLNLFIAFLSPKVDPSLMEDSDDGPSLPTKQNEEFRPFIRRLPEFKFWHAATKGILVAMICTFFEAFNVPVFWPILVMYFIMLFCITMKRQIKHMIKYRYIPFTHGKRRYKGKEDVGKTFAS
# B1: Glucose 1,6-bisphosphate synthase (protein, UniProt Q8CAA7 1-621)
# chain: MAENADDDLNSNLLHAPYLTGDPQLDTAIGQWLRWDKNPKTKEQIENLLRNGMNKELRDRLCCRMTFGTAGLRSAMGAGFCYINDLTVIQSTQGMYKYLERCFSDFKQRGFVVGYDTRGQVTSSCSSQRLAKLTAAVLLAKDIPVYLFSRYVPTPFVPYAVQELKAVAGVMITASHNRKEDNGYKVYWETGAQITSPHDKEILKCIEECVEPWNDSWNDNLVDTSPLKKDPLQDICKKYMEDLKKICFYRDLNSKTTLKFVHTSFHGVGHDYVQLAFQVFGFKPPIPVPEQKDPDPDFSTVKCPNPEEGESVLELSLRLAEKENARIVLATDPDADRLAVAELQENGRWKVFTGNELAALFGWWMFDCWKKNKPNADVKNVYMLATTVSSKILKAIALKEGFHFEETLPGFKWIGSRIKDLLGNGKEVLFAFEESIGFLCGTSVLDKDGVSAAAVVAEMASFLDTRKVTLMEQLTKVYEIYGYHMSKTSYFLCYDPPTIKTIFERIRNFESPKEYPKFCGAFAILHVRDITTGYDSSQPNKKSVLPVSKNSQMITFTFQNGCVATLRTSGTEPKIKYYAEMCASPGQSDTTFLEEELKKLIDALIENFLEPSKNALVWRSV
# B2: 1-phosphatidylinositol 4,5-bisphosphate phosphodiesterase beta-1 (protein, UniProt Q9Z1B3 1-1216)
# chain: MAGAQPGVHALQLKPVCVSDSLKKGTKFVKWDDDSTIVTPIILRTDPQGFFFYWTDQNKETELLDLSLVKDARCGKHAKAPKDPKLRELLDVGNIGHLEQRMITVVYGPDLVNISHLNLVAFQEEVAKEWTNEVFSLATNLLAQNMSRDAFLEKAYTKLKLQVTPEGRIPLKNIYRLFSADRKRVETALEACSLPSSRNDSIPQEDFTPDVYRVFLNNLCPRPEIDNIFSEFGAKSKPYLTVDQMMDFINLKQRDPRLNEILYPPLKQEQVQVLIEKYEPNSSLAKKGQMSVDGFMRYLSGEENGVVSPEKLDLNEDMSQPLSHYFINSSHNTYLTAGQLAGNSSVEMYRQVLLSGCRCVELDCWKGRTAEEEPVITHGFTMTTEISFKEVIEAIAECAFKTSPFPILLSFENHVDSPKQQAKMAEYCRLIFGDALLMEPLEKYPLESGVPLPSPMDLMYKILVKNKKKSHKSSEGSGKKKLSEQASNTYSDSSSVFEPSSPGAGEADTESDDDDDDDDCKKSSMDEGTAGSEAMATEEMSNLVNYIQPVKFESFEISKKRNKSFEMSSFVETKGLEQLTKSPVEFVEYNKMQLSRIYPKGTRVDSSNYMPQLFWNAGCQMVALNFQTVDLAMQINMGMYEYNGKSGYRLKPEFMRRPDKHFDPFTEGIVDGIVANTLSVKIISGQFLSDKKVGTYVEVDMFGLPVDTRRKAFKTKTSQGNAVNPVWEEEPIVFKKVVLPSLACLRIAAYEEGGKFIGHRILPVQAIRPGYHYICLRNERNQPLTLPAVFVYIEVKDYVPDTYADVIEALSNPIRYVNLMEQRAKQLAALTLEDEEEVKKEADPGETSSEAPSETRTTPAENGVNHTASLAPKPPSQAPHSQPAPGSVKAPAKTEDLIQSVLTEVEAQTIEELKQQKSFVKLQKKHYKEMKDLVKRHHKKTTELIKEHTTKYNEIQNDYLRRRAALEKSAKKDSKKKSEPSSPDHGSSAIEQDLAALDAEMTQKLIDLKDKQQQQLLNLRQEQYYSEKYQKREHIKLLIQKLTDVAEECQNNQLKKLKEICEKEKKELKKKMDKKRQEKITEAKSKDKSQMEEEKTEMIRSYIQEVVQYIKRLEEAQSKRQEKLVEKHNEIRQQILDEKPKLQTELEQEYQDKFKRLPLEILEFVQEAMKGKISEDSNHGSAPPSLASDAAKVNLKSPSSEEIERENPGREFDTPL
# B3: Transcriptional activator protein Pur-beta (protein, UniProt O35295 1-324)
# chain: MADGDSGSERGGGGGGGGGPGGFQPAPRGGGGGGGGPGGEQETQELASKRLDIQNKRFYLDVKQNAKGRFLKIAEVGAGGSKSRLTLSMAVAAEFRDSLGDFIEHYAQLGPSSPEQLAAGAEEGGGPRRALKSEFLVRENRKYYLDLKENQRGRFLRIRQTVNRGGGGFGGGPGPGGLQSGQTIALPAQGLIEFRDALAKLIDDYGGDEDELAGGPGGGAGGPGGGLYGELPEGTSITVDSKRFFFDVGCNKYGVFLRVSEVKPSYRNAITVPFKAWGKFGGAFCRYADEMKEIQERQRDKLYERRGGGSGGGDESEGEEVDED
# B4: RasGAP-activating-like protein 1 (protein, UniProt Q9Z268 1-799)
# chain: MAKSGSLSIRVVEGRALPAKDVSGSSDPYCLVKVDDQVVARTATIWRSLSPFWGEEYTVHLPLDFHHLAFYVLDEDTVGHDDIIGKISLSKEAITADPRGIDSWINLSRVDPDAEVQGEVCLDVKLLEDARGRCLRCHVRQARDLAPRDISGTSDPFARVFWGNHSLETSTIKKTRFPHWDEVLELREAPGTTSPLRVELWDWDMVGKNDFLGMVEFTPQTLQQKPPNGWFRLLPFPRAEDSGGSLGALRLKVRLTEDRVLPSQYYQPLMELLLESVQGPAEEDTTSPLALLEELASGDCRQDLATKLVKLFLGRGLAGPFLDYLTRREVARTNDPNTLFRSNSLASKSMEQFMKLVGMRYLHEVLRPVISRVFEEKKYMELDPCKMDLNRSRRISFKGTPTEEQVRETSLGLLTGYLGSVVDAIVSSTGRCPLALRLAFKQLQRCVEKRFSGIEHQDVKYLAISGFLFLRFFAPAILTPKLFDLRDQHADPQTSRSLLLLAKAVQSIGNLGQQLGQGKEQWLAPLHPFLLQSISRVRDFLDQLVDVDEDEEAGGPACALVQPSTIVREGFLLKRKEEPGGLATRFAFKKRYFRLSGRDLSYSKTPEWQVHTSIPLSCIRAVEHVDEGAFQLPHVMQVVTQDGAGTSHTTYLQCKNVNDLNQWLSALRKASAPNPGKLVACHPGAFRSGRWTCCLQAERSAAGCSRTHSAITLGDWSDPLDPDAEAQAVYRQLLLGRDQLRLKLLEDSSLDTEVDPGRDSSATDGPCAEVLAQQRAATTHLLQVLEDLEQAHEEFQKRG
# B5: Regulator of G-protein signaling 14 isoform X1 (protein, UniProt P97492 1-547)
# chain: MPGKPKHLGVPNGRMVLAVSDGELTSTAGSQAQGEGRGSSLSIHSLPSGPSSPFSTEEQPVASWAQSFERLLQDPRGLAYFTEFLKKEFSAENVTFWKACERFQQIPASDTKQLAQEAHNIYHEFLSSQALSPVNIDRQAWLSEEVLAQPRPDMFRAQQLQIFNLMKFDSYARFVKSPLYQECLLAEAEGRPLREPGSSHLGSPDTARKKPKLKPGKSLPLGVEELGQLPLAEGPCGRPLRKSFRREMTGGAMNSALRRESQGSLNSSASLDLGFLAFVSSKSESHRKSLGSGESESESRPGKYCCVYLPDGTASLALARPGLTIRDMLAGICEKRGLSLPDIKVYLVGNEQKALVLDQDCTVLADQEVRLENRITFQLELVGLERVVRISAKPTKRLQEALQPILAKHGLSLDQVVLHRPGEKQPMDLENPVSSVASQTLVLDTPPDAKMSEARSISPCRSQGCLPRTQTKDSHLPPSSSSLLVEDASSSTGNRQTCDIEGLVELLNRVQSSGAHDQRGLLRKEDLVLPEFLQLPSQRPGSREAPP
# B6: Sideroflexin-3 (protein, UniProt Q91V61 1-321)
# chain: MGDLPLNINIQEPRWDQSTFLGRARHFFTVTDPRNLLLSGEQLEASRNIVQNYRAGVATPGLTEDQLWRAKYVYDSAFHPDTGEKVVLIGRMSAQVPMNMTITGCMLTFYRKTPTVVFWQWVNQSFNAIVNYSNRSGDAPITVQQLGTAYVSATTGAVATALGLKSLTKHLPPLVGRFVPFAAVAAANCINIPLMRQRELQVGIPVTDEAGQRLGHSVTAAKQGIFQVVISRIGMAIPAMAIPPVIMNTLEKKDFLKRRPWLGAPLQVGLVGFCLVFATPLCCALFPQRSSIHVTRLEPELRAQIQAQNPSIDVVYYNKGL
# Target: T1, Retention in endoplasmic reticulum 1 (Rer1), mouse (mouse (endogenous in brain))
# Assay: affinity purification with mass spectrometry; anti-RER1 immunoprecipitation of hippocampus lysates (gentle RIPA lysis buffer) of PTZ-induced Nedd4-2+/- and wild-type mice, LC-MS/MS; IgG-precipitated proteins subtracted; proteins present in all four replicates of a group defined as positive
row,Binder,binding
1,B1,binds
2,B2,binds
3,B3,binds
4,B4,binds
5,B5,binds
6,B6,binds

# — paper PMC9271913
